# Source: PubChem BioAssay AID1259415 (National Center for Advancing Translational Sciences (NCATS), 2018)
# Screen size: about 410,000 compounds; about 18,000 (4.4%) were called active. Inconclusive means that the source gave no clear call. Such entries were picked first, then a sample of the others. Rule as the data show it: active = activity change below about -60%; inconclusive = no clear call, values can overlap the other calls; inactive = above about -39%.
# Test: qHTS Assay for inhibitors of the human cytomegalovirus (HCMV)
# Conditions: HFF cells, HCMV-luciferase reporter, 72 h; at 57.5 µM; stronger effect = lower value
# Outline: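 Screen run at 2 compound doses on HFFs infected with reporter HCMV, MOI 1 PFU/cell. Luciferase activity from cell lysates at 72 h post infection gave inhibition relative to buffer-only and Salinomycin wells.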
# % is scaled to controls: 0 for no effect and ±100 for the full control effect.
row,SMILES,"activity change, negative = inhibition"
1,COC(=O)c1ccccc1NC(=O)c1nn(C)c2c1COc1ccccc1-2,inactive: -12.8%
2,O=C(NCCCN1CCOCC1)c1ccc2c(=O)n(Cc3ccccc3)c(=S)[nH]c2c1,inconclusive: -59.4%
3,CSc1ncc(Cl)c(C(=O)N(C)c2ccccc2)n1,inactive: -4.85%
4,CC1CC(C)(C)N(C(=O)CN2C(=O)c3ccccc3C2=O)c2ccccc21 (stereo not given),inconclusive: -55.8%
5,O=C(c1ccc(Cl)c(S(=O)(=O)N2CCCCC2)c1)N1CCCC(C(F)(F)F)C1 (stereo not given),inconclusive: -48%
6,Cc1nn(Cc2ccccc2Cl)c2sc(C(=O)NC(C)(C)C)cc12,inconclusive: -59.2%
7,COc1ccc(-n2nnc(-c3nsc(NC(=O)c4cccc(C)c4)n3)c2C)cc1OC,active: -100%
8,COc1ccc(-c2[nH]c3c(c2-c2c(-n4cccc4)n(C)c(=O)[nH]c2=O)c(=O)[nH]c(=O)n3C)cc1F,inactive: 51.2%
9,COc1cc2c(c(OC)c1OC)-c1ccc(OC)c(=O)cc1C(NC(C)=O)CC2 (stereo not given),active: -87.2%
10,Cc1nc2c(OCc3cccc(Cl)c3)cccn2c1N(C)Cc1cccs1,inconclusive: -59.8%
11,CSc1ccc(/C=C/c2nc3ccccc3n2S(=O)(=O)c2ccc(Br)cc2)cc1,inconclusive: -41.3%
12,COCCN(C(=O)CC1C(=O)NCCN1CC(c1ccccc1)c1ccccc1)C(C)C (stereo not given),inconclusive: -43.8%
13,Cc1cc(C(=S)N2CCOCC2)c(C)n1-c1ccc(Cl)cc1,inconclusive: -44.7%
14,Cc1cccc(CC(=O)NCCS(=O)(=O)N2CCN(c3cccc(Cl)c3)CC2)c1,inactive: -12.6%
15,O=C(Cn1cccc1C(=O)c1ccccc1)NCCC1=CCCCC1,active: -64.3%
16,CC(C)CC(=O)Nc1ccc([N+](=O)[O-])cc1Cl,inconclusive: -42.4%
17,CN(C)S(=O)(=O)Nc1cc(F)cc(F)c1,inconclusive: -46.7%
18,CC1CCN(Cc2nnnn2CCCC(=O)NC(c2ccccn2)C(F)(F)F)CC1 (stereo not given),inconclusive: -55.3%
19,Nc1nc(Nc2cccc(Cl)c2)sc1C(=O)c1ccc(F)cc1,inconclusive: -58.1%
20,Cc1ccccc1Nc1cccc2nonc12,inconclusive: -52.2%
21,Cc1cn(S(=O)(=O)c2ccc(Cl)cc2)c(C)n1,inconclusive: -46.4%
22,CCOc1cc(/C=N/NC(=O)c2cc(C)n(-c3ccc(F)cc3)c2C)ccc1O,inactive: -11%
23,O=C(CCNS(=O)(=O)c1cccc2nsnc12)N1CCc2ccccc21,inactive: 23%
24,CCCOc1c(Br)cc(C2C3=C(CCCC3=O)N(CC)C3=C2C(=O)CCC3)cc1OC,inconclusive: -44.1%
25,O=C(CSc1ncn[nH]1)Nc1ccccc1Sc1ccc(Cl)cc1,inconclusive: -44%
26,Fc1ccc(Oc2nccc(-c3ccc(Cl)cc3)n2)cc1,inactive: -26%
27,O=C(O)C1=C2C(=O)Nc3cccc(c32)C2(C1)C(=O)Nc1ccccc12 (stereo not given),inactive: 3.32%
28,CCC1CN(C(=O)NCc2ccc(F)cc2)c2cc(Cl)ccc2O1 (stereo not given),inconclusive: -53.6%

# Two compounds drawn at random from the list so far:
row,SMILES,"activity change, negative = inhibition"
3,CSc1ncc(Cl)c(C(=O)N(C)c2ccccc2)n1,inactive: -4.85%
26,Fc1ccc(Oc2nccc(-c3ccc(Cl)cc3)n2)cc1,inactive: -26%

# Next compounds:

row,SMILES,"activity change, negative = inhibition"
1,O=c1c2ccccc2nc(-c2cccs2)n1-c1ccc2ccccc2c1,inconclusive: -51.8%
2,CCOC(=O)NC(=O)/C(N=Nc1ccc(C(F)(F)F)cc1)=C(\C)O,inconclusive: -53.8%
3,COc1ccc(C(O)c2nc(-c3ccc(N(C)C)cc3)cs2)cc1 (stereo not given),inconclusive: -55%
4,COc1ccccc1NC(=O)c1ccc(-c2nc(COc3ccc(C)cc3)c(C)o2)cc1,inconclusive: -41.4%
5,O=C(Nc1ccc(OCC(F)(F)C(F)F)c(C(F)(F)F)c1)c1ccccc1O,active: -97.1%
6,C/C(CC(=O)Nc1cccc(Cl)c1Cl)=N\NC(=O)C(=O)N1CCCC1,inactive: 26.6%
7,CC1=CC(=Cc2sc3ccccc3[n+]2C)C=C(C)O1,active: -100%
8,OCC1CCCN(c2nc(CN3CCCCC3)nc3scc(-c4ccccc4)c23)C1 (stereo not given),inconclusive: -54.8%
9,CCOc1ccc(N(CC(=O)Nc2c(C)n(C)n(-c3ccccc3)c2=O)S(=O)(=O)c2ccc(F)cc2)cc1,active: -66.2%
10,COc1ccc2ccc3cccc[n+]3c2c1,inactive: 11.5%
11,COc1ccc(OC)c(-c2nn(-c3ccccc3)cc2C(=O)NCC2CCCO2)c1 (stereo not given),inconclusive: -51.4%
12,CCn1c(CNC(=O)COc2ccc(C(C)C)cc2)nnc1SCC(=O)Nc1ccccc1C(C)C,inconclusive: -51.8%
13,COc1cc(-c2[nH]ncc2CN(C)Cc2nonc2C)cc(OC)c1OC,inactive: -3.55%
14,CCOC(=O)N1CCN(CC(=O)c2ccc(O)c(C)c2O)CC1,inconclusive: 0%
15,Cn1c(=O)[nH]c(=O)c2c1nc(CN1CCN(c3ccccc3)CC1)n2Cc1c(F)cccc1Cl,inconclusive: -55.5%
16,COc1ccc(-n2c(CN3CCN(c4ccccc4)CC3)nc3ccc([N+](=O)[O-])cc3c2=O)c(OC)c1,active: -78.5%
17,O=C(NC(=S)N(CCCCO)C1CCCCC1)c1sc2ccccc2c1Cl,inconclusive: -43.9%
18,COc1ccccc1NS(=O)(=O)c1cc(NC(=S)Nc2cc(C)cc(C)c2)ccc1Cl,active: -82.1%
19,Cc1ccc(/C(O)=C2/C(=O)C(=O)N(CCN3CCOCC3)C2c2cccnc2)cc1 (stereo not given),inactive: 10.2%
20,CCCOc1cccc(-c2cc(C(=O)NN)c3ccccc3n2)c1,inactive: -28%
21,CCCCNC(=O)CCn1nc(-c2ccc(Cl)cc2)c2ccccc2c1=O,inconclusive: -47.8%
22,Cc1ccc(C)c(N(C)S(=O)(=O)c2ccc3[nH]cc(C(=O)NCCN4CCOCC4)c(=O)c3c2)c1,inactive: 20.5%
23,CCOc1ccc(NC(=O)CSc2nc3ccsc3c(=O)n2CC)cc1,inconclusive: -55.8%
24,CCCCNC(=O)[C@@H]1CSC2c3ccccc3C(=O)N21 (stereo not given in full),inconclusive: -51%
25,COc1ccc(N2CCN(CCS(=O)(=O)c3cc(Cl)ccc3Cl)CC2)cc1,inconclusive: -54%
26,CCCc1cc(=O)oc2cc(OCC(=O)NCCCn3ccnc3)ccc12,inconclusive: 0%
27,Cn1nc([N+](=O)[O-])nc1Sc1cccc2cccnc12,inconclusive: -57.4%
